Literature values in patent US12545961B2, “Method of predicting risk of recurrence of cancer” (THE PROVOST, FELLOWS, SCHOLARS AND OTHER MEMBERS OF BOARD …, priority 2014, dated 2026).
At least one structure is not confirmed: it was looked up by name or label, or the drawing left a doubt.

Test system: advanced ER+ Her2+ breast cancer
Settings: combination therapy with letrozole vs standard regimen, late-stage patients, PALOMA-1 trial (Finn 2014)

CC(=O)c1c(C)c2cnc(Nc3ccc(N4CCNCC4)cn3)nc2n(C2CCCC2)c1=O [palbociclib]
extends survival (addition of palbociclib to a standard regimen): 10 months
